The other results are listed elsewhere or left out.
Columns and labels:
Assay in all cases: log2 fold change, soluble protein after heating vs DMSO (PISA); higher = thermal stabilisation; K562 lysate, 10 uM; active = over 0.2 and 3.5 SD of the protein, either way, in both replicates (recomputed)
[1] = compound: CS(=O)(=O)CCNCc1ccc(-c2ccc3ncnc(Nc4ccc(OCc5cccc(F)c5)c(Cl)c4)c3c2)o1 [lapatinib]
In short: (§1)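 A 30 min treatment with 10 μM compound was applied to crude K562 extract at 1 mg/mL protein in PBS pH 7.4 with 1 mM MgCl2. Heating for 3 min spanned 48°C-58°C, after which aliquots were pooled, adjusted to 0.5% NP-40 at 4°C and spun at 21,000xg for 90 min. TMTpro 16plex LC-MS/MS of the supernatant, with channel sums equalised, gave values recorded as log-two fold change in thermal stability against solvent controls, from duplicates.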

Amino acid sequences for entries named in this document (tags omitted). A change or cut given only in a name is not applied to a line headed by its entry.
UniProt Q9NRN9: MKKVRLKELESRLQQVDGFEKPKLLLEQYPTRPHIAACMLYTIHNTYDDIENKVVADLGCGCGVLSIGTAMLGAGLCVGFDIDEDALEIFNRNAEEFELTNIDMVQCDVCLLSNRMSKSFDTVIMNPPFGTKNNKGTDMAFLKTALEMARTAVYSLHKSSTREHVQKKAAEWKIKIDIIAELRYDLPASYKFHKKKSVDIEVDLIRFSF
UniProt P40926: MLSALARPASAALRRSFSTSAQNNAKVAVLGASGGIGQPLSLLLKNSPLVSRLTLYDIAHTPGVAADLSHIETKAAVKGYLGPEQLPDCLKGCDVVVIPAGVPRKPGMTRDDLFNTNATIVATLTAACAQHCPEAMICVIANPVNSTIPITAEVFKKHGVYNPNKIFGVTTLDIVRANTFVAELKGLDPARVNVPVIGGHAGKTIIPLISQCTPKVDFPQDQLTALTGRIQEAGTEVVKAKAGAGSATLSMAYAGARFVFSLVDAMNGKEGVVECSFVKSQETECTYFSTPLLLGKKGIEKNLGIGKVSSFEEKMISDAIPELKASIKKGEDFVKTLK
UniProt Q15528: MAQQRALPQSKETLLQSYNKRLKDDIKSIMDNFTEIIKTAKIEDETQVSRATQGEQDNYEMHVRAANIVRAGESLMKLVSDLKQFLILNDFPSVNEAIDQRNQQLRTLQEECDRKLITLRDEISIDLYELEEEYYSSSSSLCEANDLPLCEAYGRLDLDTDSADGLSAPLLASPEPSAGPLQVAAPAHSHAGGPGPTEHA
UniProt Q7L2J0: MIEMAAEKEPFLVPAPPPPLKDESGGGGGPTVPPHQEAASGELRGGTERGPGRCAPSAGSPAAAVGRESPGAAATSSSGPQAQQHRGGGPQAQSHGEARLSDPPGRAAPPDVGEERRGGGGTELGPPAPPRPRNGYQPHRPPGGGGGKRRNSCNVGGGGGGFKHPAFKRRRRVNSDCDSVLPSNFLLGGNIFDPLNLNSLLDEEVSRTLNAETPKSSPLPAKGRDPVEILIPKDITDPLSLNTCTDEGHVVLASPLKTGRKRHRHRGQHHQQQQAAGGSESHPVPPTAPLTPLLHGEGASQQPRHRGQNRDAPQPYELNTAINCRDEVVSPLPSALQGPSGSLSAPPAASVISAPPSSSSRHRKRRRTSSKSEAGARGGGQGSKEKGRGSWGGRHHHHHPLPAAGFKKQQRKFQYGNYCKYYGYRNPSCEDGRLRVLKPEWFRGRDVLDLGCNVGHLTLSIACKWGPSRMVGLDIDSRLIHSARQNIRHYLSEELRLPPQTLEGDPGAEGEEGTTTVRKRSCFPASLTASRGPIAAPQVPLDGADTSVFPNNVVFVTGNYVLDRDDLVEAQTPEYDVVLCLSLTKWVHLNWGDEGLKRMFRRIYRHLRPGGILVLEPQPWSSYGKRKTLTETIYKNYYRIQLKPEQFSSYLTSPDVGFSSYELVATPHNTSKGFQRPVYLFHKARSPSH
UniProt Q6P2C8: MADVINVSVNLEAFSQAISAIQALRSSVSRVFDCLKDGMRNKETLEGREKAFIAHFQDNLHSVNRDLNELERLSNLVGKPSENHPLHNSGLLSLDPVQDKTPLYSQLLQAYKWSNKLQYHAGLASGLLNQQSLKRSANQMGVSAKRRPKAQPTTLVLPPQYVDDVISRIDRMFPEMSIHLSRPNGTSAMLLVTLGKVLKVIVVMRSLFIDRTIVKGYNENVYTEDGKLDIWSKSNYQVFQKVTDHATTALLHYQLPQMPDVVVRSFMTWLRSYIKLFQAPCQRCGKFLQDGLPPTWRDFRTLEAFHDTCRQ
UniProt P49736, whole entry, looked up: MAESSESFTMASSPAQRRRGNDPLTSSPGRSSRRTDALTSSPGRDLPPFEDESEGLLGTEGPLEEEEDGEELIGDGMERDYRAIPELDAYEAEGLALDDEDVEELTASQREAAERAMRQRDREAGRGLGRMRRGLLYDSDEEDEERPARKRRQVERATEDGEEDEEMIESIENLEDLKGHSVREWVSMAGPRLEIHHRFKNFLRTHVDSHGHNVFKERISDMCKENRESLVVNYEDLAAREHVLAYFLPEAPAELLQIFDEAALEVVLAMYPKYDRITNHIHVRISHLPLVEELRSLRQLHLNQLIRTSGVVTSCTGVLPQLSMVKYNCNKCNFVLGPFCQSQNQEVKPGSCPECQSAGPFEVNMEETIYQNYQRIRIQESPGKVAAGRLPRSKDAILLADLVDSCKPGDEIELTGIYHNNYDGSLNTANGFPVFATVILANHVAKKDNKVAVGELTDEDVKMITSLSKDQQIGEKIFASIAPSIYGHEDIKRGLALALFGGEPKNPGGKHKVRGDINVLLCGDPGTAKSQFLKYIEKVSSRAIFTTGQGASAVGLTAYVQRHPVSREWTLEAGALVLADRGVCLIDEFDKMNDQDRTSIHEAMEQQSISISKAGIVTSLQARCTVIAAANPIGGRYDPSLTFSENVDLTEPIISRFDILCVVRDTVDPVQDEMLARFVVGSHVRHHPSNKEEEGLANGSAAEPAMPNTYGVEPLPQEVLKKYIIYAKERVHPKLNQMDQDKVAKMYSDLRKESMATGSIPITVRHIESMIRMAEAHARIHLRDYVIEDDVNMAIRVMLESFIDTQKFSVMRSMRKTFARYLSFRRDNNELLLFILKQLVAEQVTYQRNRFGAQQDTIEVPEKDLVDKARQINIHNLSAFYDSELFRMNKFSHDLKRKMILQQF
UniProt Q71SY5: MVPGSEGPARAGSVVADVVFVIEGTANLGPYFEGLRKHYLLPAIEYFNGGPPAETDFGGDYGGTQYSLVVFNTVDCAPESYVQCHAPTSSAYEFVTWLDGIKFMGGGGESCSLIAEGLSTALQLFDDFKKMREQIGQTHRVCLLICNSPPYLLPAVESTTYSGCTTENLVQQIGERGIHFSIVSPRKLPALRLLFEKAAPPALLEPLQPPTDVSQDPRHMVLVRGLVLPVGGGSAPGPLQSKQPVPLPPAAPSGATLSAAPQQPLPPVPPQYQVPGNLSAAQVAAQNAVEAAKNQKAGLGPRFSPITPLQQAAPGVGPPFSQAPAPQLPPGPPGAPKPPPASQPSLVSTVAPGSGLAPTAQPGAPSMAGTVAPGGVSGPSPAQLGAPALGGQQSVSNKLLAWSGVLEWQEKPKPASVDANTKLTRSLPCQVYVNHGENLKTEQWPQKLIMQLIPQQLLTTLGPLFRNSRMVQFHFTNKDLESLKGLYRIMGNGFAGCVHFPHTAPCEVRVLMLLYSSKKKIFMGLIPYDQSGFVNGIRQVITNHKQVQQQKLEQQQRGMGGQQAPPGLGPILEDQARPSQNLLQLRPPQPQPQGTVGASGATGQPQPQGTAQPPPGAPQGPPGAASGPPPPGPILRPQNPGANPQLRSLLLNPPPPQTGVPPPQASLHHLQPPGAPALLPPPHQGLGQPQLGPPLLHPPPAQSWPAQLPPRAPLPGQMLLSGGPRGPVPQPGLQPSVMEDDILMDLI
UniProt Q96AQ8: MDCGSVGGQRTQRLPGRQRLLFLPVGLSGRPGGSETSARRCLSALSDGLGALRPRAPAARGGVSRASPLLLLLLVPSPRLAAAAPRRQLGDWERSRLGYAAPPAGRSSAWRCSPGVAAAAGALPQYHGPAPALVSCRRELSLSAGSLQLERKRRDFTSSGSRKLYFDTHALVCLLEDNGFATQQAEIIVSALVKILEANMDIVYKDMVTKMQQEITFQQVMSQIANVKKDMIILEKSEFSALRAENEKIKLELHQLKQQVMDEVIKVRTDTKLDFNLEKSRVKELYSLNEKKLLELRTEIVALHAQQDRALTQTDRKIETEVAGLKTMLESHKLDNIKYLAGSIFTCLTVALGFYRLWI
UniProt Q96PE7: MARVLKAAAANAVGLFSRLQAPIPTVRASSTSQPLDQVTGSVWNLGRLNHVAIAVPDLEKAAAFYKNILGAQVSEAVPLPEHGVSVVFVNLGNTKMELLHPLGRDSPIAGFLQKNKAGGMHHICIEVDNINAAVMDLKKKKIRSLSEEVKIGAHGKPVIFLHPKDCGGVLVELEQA
UniProt P33991: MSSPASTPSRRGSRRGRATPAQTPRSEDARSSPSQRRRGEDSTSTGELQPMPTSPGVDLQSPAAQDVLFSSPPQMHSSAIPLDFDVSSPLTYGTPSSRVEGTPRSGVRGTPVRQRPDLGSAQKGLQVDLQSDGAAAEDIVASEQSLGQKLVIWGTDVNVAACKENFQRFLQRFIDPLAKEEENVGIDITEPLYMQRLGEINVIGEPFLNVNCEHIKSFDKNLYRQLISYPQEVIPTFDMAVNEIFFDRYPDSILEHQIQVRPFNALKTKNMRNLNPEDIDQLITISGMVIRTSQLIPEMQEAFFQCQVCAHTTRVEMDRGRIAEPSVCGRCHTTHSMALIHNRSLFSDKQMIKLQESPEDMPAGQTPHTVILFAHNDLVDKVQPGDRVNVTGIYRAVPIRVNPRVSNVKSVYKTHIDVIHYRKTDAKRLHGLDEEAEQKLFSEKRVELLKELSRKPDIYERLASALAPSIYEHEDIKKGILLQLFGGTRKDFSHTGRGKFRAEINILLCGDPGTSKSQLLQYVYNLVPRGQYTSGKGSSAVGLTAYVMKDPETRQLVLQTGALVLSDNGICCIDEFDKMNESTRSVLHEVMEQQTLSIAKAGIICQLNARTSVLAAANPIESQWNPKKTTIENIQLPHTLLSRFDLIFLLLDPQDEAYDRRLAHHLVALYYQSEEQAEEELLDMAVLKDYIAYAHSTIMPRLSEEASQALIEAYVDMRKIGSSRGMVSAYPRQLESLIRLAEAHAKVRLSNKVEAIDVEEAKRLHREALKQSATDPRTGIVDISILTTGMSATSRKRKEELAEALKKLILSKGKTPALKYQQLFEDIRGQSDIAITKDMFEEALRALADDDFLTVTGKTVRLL
UniProt Q14696: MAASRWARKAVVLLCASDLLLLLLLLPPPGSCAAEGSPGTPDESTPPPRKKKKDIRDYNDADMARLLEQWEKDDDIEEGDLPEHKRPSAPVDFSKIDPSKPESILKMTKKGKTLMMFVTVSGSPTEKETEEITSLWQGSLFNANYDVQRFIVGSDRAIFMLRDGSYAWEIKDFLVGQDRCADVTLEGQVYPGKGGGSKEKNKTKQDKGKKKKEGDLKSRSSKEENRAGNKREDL
UniProt Q6ZNC8: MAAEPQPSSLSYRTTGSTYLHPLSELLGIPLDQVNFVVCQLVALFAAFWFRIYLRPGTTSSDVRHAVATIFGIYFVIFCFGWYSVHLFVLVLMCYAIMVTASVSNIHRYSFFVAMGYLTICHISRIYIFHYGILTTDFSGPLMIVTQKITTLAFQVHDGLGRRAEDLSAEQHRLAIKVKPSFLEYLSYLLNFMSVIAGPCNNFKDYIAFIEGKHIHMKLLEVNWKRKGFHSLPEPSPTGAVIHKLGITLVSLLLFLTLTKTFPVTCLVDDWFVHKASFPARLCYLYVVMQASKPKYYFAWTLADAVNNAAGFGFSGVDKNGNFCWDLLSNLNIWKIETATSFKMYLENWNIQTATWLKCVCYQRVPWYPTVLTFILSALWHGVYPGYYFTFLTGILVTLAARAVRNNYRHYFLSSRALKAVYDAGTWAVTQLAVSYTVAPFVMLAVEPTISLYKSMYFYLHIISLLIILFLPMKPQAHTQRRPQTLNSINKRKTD
UniProt O75448: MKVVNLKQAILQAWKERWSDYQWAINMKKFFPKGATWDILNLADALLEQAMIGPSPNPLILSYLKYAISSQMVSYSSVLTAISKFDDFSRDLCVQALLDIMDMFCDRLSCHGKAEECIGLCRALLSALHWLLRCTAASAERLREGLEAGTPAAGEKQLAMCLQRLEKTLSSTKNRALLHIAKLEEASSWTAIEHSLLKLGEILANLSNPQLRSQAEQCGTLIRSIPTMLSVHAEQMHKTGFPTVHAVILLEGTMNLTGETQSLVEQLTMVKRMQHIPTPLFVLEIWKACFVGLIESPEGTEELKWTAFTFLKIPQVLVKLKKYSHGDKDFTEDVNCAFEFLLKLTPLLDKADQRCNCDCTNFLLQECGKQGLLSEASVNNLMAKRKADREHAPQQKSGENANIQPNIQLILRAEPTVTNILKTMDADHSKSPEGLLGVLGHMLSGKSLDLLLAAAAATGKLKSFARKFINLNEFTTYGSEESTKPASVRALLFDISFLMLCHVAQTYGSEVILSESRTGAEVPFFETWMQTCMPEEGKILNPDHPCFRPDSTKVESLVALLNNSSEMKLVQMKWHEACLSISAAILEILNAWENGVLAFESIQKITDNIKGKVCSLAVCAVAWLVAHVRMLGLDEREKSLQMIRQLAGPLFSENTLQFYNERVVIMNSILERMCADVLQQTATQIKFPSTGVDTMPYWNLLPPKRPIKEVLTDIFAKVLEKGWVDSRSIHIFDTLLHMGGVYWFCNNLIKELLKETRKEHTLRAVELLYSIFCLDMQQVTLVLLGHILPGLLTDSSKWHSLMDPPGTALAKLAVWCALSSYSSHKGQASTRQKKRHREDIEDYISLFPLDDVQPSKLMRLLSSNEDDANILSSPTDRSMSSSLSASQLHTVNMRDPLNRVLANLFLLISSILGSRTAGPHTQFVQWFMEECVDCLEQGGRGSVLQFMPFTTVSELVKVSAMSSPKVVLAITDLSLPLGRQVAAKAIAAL

[2] = compound: CS(=O)(=O)N1CCN(Cc2cc3nc(-c4cccc5[nH]ncc45)nc(N4CCOCC4)c3s2)CC1 [pictilisib]
In short: as §1

[3] = compound: C[C@@H](Oc1cc(-c2cnn(C3CCNCC3)c2)cnc1N)c1c(Cl)ccc(F)c1Cl [crizotinib]
In short: as §1

[4] = compound: C[C@H](C1=CC=C(C=C1)C(=O)NC2=C3C=CNC3=NC=C2)N
In short: as §1

[5] = compound: C[C@H](Nc1ncnc2nc[nH]c12)c1cc2cccc(Cl)c2c(=O)n1-c1ccccc1 [duvelisib]
In short: as §1

[6] = compound: Cc1cc(Nc2cc(CN3CCOCC3)c3nc(C)c(Cc4ccc(Cl)cc4F)n3n2)n[nH]1 [gandotinib]
In short: as §1

[7] = compound: Cc1cc(Nc2cc(N3CCN(C)CC3)nc(Sc3ccc(NC(=O)C4CC4)cc3)n2)n[nH]1 [tozasertib]
In short: as §1

[8] = compound: Cc1ccc(-n2nc(C(C)(C)C)cc2NC(=O)Nc2ccc(OCCN3CCOCC3)c3ccccc23)cc1 [doramapimod]
In short: as §1

[9] = compound: Cc1ccc(NC(=O)c2ccc(CN3CC[C@H](N(C)C)C3)c(C(F)(F)F)c2)cc1Nc1nccc(-c2cncnc2)n1 [bafetinib]
In short: as §1

[10] = compound: Cc1cccc(CC(=O)N2CCc3c2ccc(-c2cn(C)c4ncnc(N)c24)c3F)n1
In short: as §1

Measured: log2 fold change

MCM5 (UniProt P33992)
inactive: [1] -0.011 | [2] 0.003 | [3] -0.012 | [4] -0.015 | [5] 0 | [6] -0.018 | [7] -0.008 | [8] 0.017 | [9] -0.007 | [10] 0.016

METTL5 (UniProt Q9NRN9)
inactive: [1] -0.005 | [2] 0.085 | [3] 0.02 | [4] 0.064 | [5] 0.006 | [6] 0.021 | [7] -0.014 | [8] 0.032 | [9] 0.018 | [10] -0.028

MDH2 (UniProt P40926)
inactive: [1] 0.025 | [2] -0.004 | [3] 0.024 | [4] 0.036 | [5] -0.002 | [6] -0.01 | [7] -0.003 | [8] 0.022 | [9] 0.134 | [10] -0.038

MED22 isoform 2 (UniProt Q15528)
inactive: [1] 0.002 | [2] 0.013 | [3] 0.036 | [4] 0.07 | [5] 0.016 | [6] -0.058 | [7] -0.019 | [8] 0.015 | [9] -0.145 | [10] 0.013

MCMBP (UniProt Q9BTE3)
inactive: [1] 0.008 | [2] -0.027 | [3] -0.032 | [4] 0.048 | [5] 0.002 | [6] -0.083 | [7] -0.007 | [8] -0.001 | [9] -0.007 | [10] -0.048

MED8 isoform 2 (UniProt Q96G25)
inactive: [1] 0.005 | [2] -0.051 | [3] 0.014 | [5] 0.023 | [6] -0.026 | [7] 0.047 | [8] 0.069 | [9] -0.031 | [10] -0.044
active: [4] 0.269

MCL1 (UniProt Q07820)
inactive: [1] 0.177 | [2] -0.083 | [3] -0.112 | [4] -0.26 | [5] -0.002 | [6] 0.001 | [7] 0.024 | [8] 0.042 | [9] -0.071 | [10] 0.179

MEPCE (UniProt Q7L2J0)
inactive: [1] 0.005 | [2] 0.005 | [3] -0.007 | [4] 0.031 | [5] 0.005 | [6] -0.023 | [7] 0.008 | [8] 0.005 | [9] -0.018 | [10] 0

MCRIP2 (UniProt Q9BUT9)
inactive: [1] 0.02 | [2] -0.147 | [3] 0.004 | [4] 0.011 | [5] 0.066 | [6] -0.034 | [7] 0.089 | [8] -0.027 | [9] -0.099 | [10] 0.006

MED27 (UniProt Q6P2C8)
inactive: [1] 0.012 | [2] 0.057 | [3] -0.022 | [4] 0.042 | [5] 0.026 | [6] 0.006 | [7] -0.038 | [8] 0.068 | [9] -0.081 | [10] -0.024

MCM2 (UniProt P49736)
inactive: [1] -0.013 | [2] -0.006 | [3] -0.037 | [4] -0.02 | [5] -0.005 | [6] -0.047 | [7] -0.002 | [8] 0.002 | [9] -0.037 | [10] 0.01

MECR (UniProt Q9BV79)
inactive: [1] -0.028 | [2] -0.038 | [3] 0.007 | [4] -0.11 | [5] 0.007 | [6] 0.045 | [7] 0.007 | [8] 0.02 | [9] -0.005 | [10] 0.013

MBNL1 isoform 5 (UniProt Q9NR56)
inactive: [1] 0.042 | [2] -0.046 | [3] 0.062 | [4] -0.005 | [5] -0.02 | [6] -0.02 | [7] 0.025 | [8] 0.023 | [9] -0.015 | [10] -0.02

METTL18 (UniProt O95568)
inactive: [1] -0.013 | [2] -0.007 | [3] -0.058 | [4] -0.054 | [5] 0.013 | [6] 0.094 | [7] -0.036 | [8] 0.058 | [9] -0.05 | [10] 0.085

MDN1 (UniProt Q9NU22)
inactive: [1] -0.004 | [2] -0.02 | [3] -0.092 | [4] -0.12 | [5] 0.045 | [6] 0.04 | [7] 0.022 | [8] 0.009 | [9] -0.055 | [10] 0.157

MED25 isoform 3 (UniProt Q71SY5)
inactive: [1] 0.018 | [2] -0.05 | [3] -0.05 | [4] 0.053 | [5] 0.063 | [6] -0.095 | [7] -0.109 | [8] -0.042 | [9] -0.023 | [10] -0.052

MFSD10 (UniProt Q14728)
inactive: [1] -0.012 | [2] -0.058 | [3] 0.036 | [4] -0.208 | [5] -0.01 | [6] 0.158 | [7] -0.062 | [8] -0.013 | [9] -0.074 | [10] 0.073

MCUR1 (UniProt Q96AQ8)
inactive: [1] -0.06 | [2] -0.015 | [3] 0.011 | [4] -0.042 | [5] 0.006 | [6] 0.006 | [7] 0.045 | [8] -0.027 | [9] 0.008 | [10] 0.01

MFSD5 isoform 2 (UniProt Q6N075)
inactive: [1] 0.079 | [2] -0.09 | [3] 0.006 | [4] -0.067 | [5] -0.036 | [6] 0.057 | [7] 0.007 | [8] -0.017 | [9] -0.067 | [10] 0.012

METAP1D (UniProt Q6UB28)
inactive: [1] 0.081 | [2] -0.025 | [3] -0.103 | [4] 0.007 | [5] -0.054 | [6] -0.006 | [7] -0.035 | [8] 0.026 | [9] -0.025 | [10] 0.011

MCEE (UniProt Q96PE7)
inactive: [1] 0.09 | [2] 0.095 | [3] 0.067 | [4] -0.017 | [5] 0.153 | [6] -0.04 | [7] 0.071 | [8] -0.033 | [9] -0.051 | [10] 0.028

MCM4 (UniProt P33991)
inactive: [1] -0.018 | [2] 0.02 | [3] -0.037 | [4] 0.029 | [5] 0.008 | [6] -0.084 | [7] -0.008 | [8] 0.045 | [9] -0.066 | [10] -0.006

MFHAS1 (UniProt Q9Y4C4)
inactive: [1] -0.138 | [2] 0.16 | [3] -0.114 | [5] 0 | [8] 0.047 | [9] -0.391

MESD (UniProt Q14696)
inactive: [1] -0.027 | [2] -0.031 | [3] 0.052 | [4] -0.075 | [5] 0.029 | [6] 0.073 | [7] 0.022 | [8] 0.018 | [9] 0.009 | [10] -0.022

METTL26 (UniProt Q96S19)
inactive: [1] 0.031 | [2] -0.136 | [3] -0.159 | [4] 0.034 | [5] 0.045 | [6] -0.086 | [7] -0.011 | [8] 0.092 | [9] -0.131 | [10] 0.086

METTL2B (UniProt Q6P1Q9)
inactive: [1] 0.042 | [2] 0.037 | [3] 0.103 | [4] -0.054 | [5] 0.07 | [6] -0.036 | [8] 0 | [9] -0.046 | [10] -0.054

MCMBP isoform 2 (UniProt Q9BTE3)
inactive: [1] 0.154 | [2] -0.179 | [3] 0.14 | [5] -0.03 | [7] 0.013 | [8] -0.092 | [9] 0.235

MBOAT1 (UniProt Q6ZNC8)
inactive: [1] -0.502 | [2] 0.033 | [3] -0.069 | [7] -0.014 | [8] -0.099 | [9] 0.123

MEF2A isoform 2 (UniProt Q02078)
inactive: [1] 0.077 | [2] -0.01 | [3] 0.017 | [4] 0.001 | [6] 0.027 | [8] 0.143 | [9] -0.033 | [10] 0.08

Quoted at random: three entries already listed, in no set order.
MDN1 (UniProt Q9NU22)
inactive: [1] -0.004 | [2] -0.02 | [3] -0.092 | [4] -0.12 | [5] 0.045 | [6] 0.04 | [7] 0.022 | [8] 0.009 | [9] -0.055 | [10] 0.157

MECR (UniProt Q9BV79)
inactive: [1] -0.028 | [2] -0.038 | [3] 0.007 | [4] -0.11 | [5] 0.007 | [6] 0.045 | [7] 0.007 | [8] 0.02 | [9] -0.005 | [10] 0.013

METTL26 (UniProt Q96S19)
inactive: [1] 0.031 | [2] -0.136 | [3] -0.159 | [4] 0.034 | [5] 0.045 | [6] -0.086 | [7] -0.011 | [8] 0.092 | [9] -0.131 | [10] 0.086

The listing continues.

MERTK (UniProt Q12866)
inactive: [1] 0.084 | [2] -0.126 | [3] 0.05 | [4] 0.342 | [5] 0.009 | [6] -0.268 | [7] 0.055 | [9] 0.044 | [10] -0.206

METTL25 (UniProt Q8N6Q8)
inactive: [1] 0.058 | [2] -0.023 | [5] -0.002 | [7] 0.057 | [9] 0.057

MED24 (UniProt O75448)
inactive: [1] 0.002 | [2] -0.005 | [3] -0.029 | [4] -0.025 | [5] 0.026 | [6] -0.014 | [7] 0.03 | [8] 0.034 | [9] 0.015 | [10] 0.051

Reference: the supplement of paper PMC10849652
